The target of the assay is T1, Flag-tagged MOV10 (Moloney leukemia virus 10 protein) (human) (UniProt Q9HCE1).
T1 sequence: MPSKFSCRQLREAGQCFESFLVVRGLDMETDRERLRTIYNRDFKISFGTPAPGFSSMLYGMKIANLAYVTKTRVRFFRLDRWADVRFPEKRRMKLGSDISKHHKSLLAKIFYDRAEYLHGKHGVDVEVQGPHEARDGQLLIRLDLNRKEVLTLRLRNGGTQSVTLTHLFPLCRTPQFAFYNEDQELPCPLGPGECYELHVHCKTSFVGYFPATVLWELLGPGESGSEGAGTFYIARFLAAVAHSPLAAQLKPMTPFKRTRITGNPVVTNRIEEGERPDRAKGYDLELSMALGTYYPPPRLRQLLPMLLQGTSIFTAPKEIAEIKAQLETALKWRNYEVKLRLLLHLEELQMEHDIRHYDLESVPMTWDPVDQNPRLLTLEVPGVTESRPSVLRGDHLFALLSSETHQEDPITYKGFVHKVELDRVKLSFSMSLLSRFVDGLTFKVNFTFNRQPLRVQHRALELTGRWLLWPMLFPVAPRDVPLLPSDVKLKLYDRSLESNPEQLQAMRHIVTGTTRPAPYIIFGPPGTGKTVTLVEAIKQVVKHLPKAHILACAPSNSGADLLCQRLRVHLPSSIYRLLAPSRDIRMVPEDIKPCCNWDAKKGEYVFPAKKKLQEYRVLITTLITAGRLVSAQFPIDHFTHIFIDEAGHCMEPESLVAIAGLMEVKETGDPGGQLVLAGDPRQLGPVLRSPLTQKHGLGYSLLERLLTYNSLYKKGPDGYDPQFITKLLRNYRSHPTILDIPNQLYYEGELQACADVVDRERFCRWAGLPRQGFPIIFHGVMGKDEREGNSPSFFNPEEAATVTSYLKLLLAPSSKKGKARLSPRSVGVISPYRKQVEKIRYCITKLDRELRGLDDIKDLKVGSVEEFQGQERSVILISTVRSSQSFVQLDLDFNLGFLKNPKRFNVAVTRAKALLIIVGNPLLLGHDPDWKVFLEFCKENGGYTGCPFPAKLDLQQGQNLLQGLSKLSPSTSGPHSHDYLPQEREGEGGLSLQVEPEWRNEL
The assay can be described thus: affinity purification with mass spectrometry; MOV10 immunoprecipitated from transfected, KOS-infected Neuro-2a cells (anti-FLAG beads; mouse IgG-agarose as control); LC-MS/MS, label-free iBAQ.

Amino acid sequences for entries named in this document (tags omitted).
UniProt P10238: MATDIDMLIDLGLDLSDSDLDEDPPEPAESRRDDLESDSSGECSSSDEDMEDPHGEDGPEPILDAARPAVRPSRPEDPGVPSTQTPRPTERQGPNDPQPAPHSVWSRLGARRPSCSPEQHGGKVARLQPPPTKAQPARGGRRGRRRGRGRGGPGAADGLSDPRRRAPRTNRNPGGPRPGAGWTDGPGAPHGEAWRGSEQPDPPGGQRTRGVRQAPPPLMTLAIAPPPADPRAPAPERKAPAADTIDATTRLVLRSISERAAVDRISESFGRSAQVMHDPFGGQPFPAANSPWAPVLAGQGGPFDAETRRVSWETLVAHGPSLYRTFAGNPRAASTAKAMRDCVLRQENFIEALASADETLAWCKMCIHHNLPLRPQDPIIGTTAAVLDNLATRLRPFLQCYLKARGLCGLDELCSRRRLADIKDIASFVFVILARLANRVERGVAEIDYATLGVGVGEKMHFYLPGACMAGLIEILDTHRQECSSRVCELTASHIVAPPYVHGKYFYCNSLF

No constants are given. Whether binding was seen depends on the method and setting. In cells and extracts the contact can be indirect. Here binding means that the protein was enriched with, or labelled near, the bait; the list need not be complete. Tags and fused reporters may be left off the sequences shown.

Turning to “HSV-1 ICP27 expressed during HSV-1 infection (from UniProt P10238 1-512)”, the binding result was “binds”.
